Assay results: PubChem BioAssay AID1487 (National Center for Advancing Translational Sciences (NCATS), 2009)
The list shows a part of the results. Further columns of the screen follow, without active or inactive calls. The list favours compounds with an active or inconclusive main result. The note in brackets gives the kind of curve behind each potency; many fits are weak.

Assay: qHTS Assay for Modulators of Lamin A Splicing
Settings: HeLa LMNA splicing GFP/RFP minigene ratio, 48 h
Procedure, shortened: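 Read-out is the ratio of GFP to DsRed2 object intensity, acquired by 488 nm laser-scanning cytometry on HeLa lamin A-EGFP minigene reporter cells. Compound incubation 48 hrs at 37 °C in Opti-MEM with 2% FBS; DMSO 0.5% final.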

[1] = measured here: RFP viability control channel
[2] = measured here: GFP splicing reporter channel

Row | Structure (SMILES) | AC50 [1] | AC50 [2]
1 | Cc1sc2nc(CSc3ccccc3)nc(NCCN(C)C)c2c1C | 15.8 µM [rising, single point] | 
2 | NC(=O)C1(N2CCCCC2)CCN(C(=S)Nc2cccc(Cl)c2)CC1 | 31.6 µM [rising, single point] | 
3 | Cc1ccc2nc(NC(=O)CCNS(=O)(=O)c3ccc(Br)s3)sc2c1 | 12.6 µM [rising, partial curve] | 
4 | COCCn1c(C)cc(C(=O)CSc2nc3ccccc3o2)c1C | 11.2 µM [rising, partial curve] | 1.58 µM [rising, partial curve]
5 | CC(C)(C)n1nnnc1C(c1cccs1)N1CCN(Cc2ccc3c(c2)OCO3)CC1 (centres undefined) | 7.08 µM [rising, partial curve] | 
6 | CCn1c(-c2ccccc2)csc1=Nc1ccc(O)cc1 |  | 14.1 µM [falling, partial curve, poor fit]
7 | O=C(Nc1cccc(C(=O)N2CCN(c3ccccc3)CC2)c1)c1nsc2ccccc12 |  | 0.282 µM [rising, single point]
8 | CCc1ccc(C2=C(C)C(N3CCC(C(=O)Nc4ccc(F)cc4)CC3)=NS2(=O)=O)cc1 | 22.4 µM [falling, single point] | 22.4 µM [falling, single point]
9 | O=C1/C(=C\c2cccnc2)CN(Cc2ccccc2)C/C1=C\c1cccnc1 | 5.62 µM [falling, single point] | 3.55 µM [falling, single point]
10 | O=C(N/N=C\c1ccc(O)c([N+](=O)[O-])c1)c1ccccc1-n1cccc1 | 17.8 µM [rising, single point] | 
11 | COc1cc([N+](=O)[O-])ccc1NC(=O)NCc1ccco1 | 1 µM [rising, full curve] | 0.891 µM [rising, full curve, poor fit]
12 | O=C1c2ccccc2C2=Nc3ccccc3SC(c3cccc(F)c3)C12 (centres undefined) | 35.5 µM [rising, partial curve] | 35.5 µM [rising, single point]
13 | Fc1ccc(NC(=S)NCc2ccccc2Cl)cc1 | 11.2 µM [rising, partial curve] | 
14 | CC(=O)c1cc2c(cc1NS(=O)(=O)c1ccc(C)cc1)OCCO2 | 11.2 µM [rising, single point] | 
15 | CCc1nc(N)nc(N)c1-c1ccc(Cl)cc1 | 31.6 µM [rising, single point] | 31.6 µM [rising, single point]
16 | Cc1c(C(=O)NN2CCCCC2)nn(-c2ccc(Cl)cc2Cl)c1-c1ccc(I)cc1 | 3.98 µM [rising, full curve, poor fit] | 5.62 µM [rising, single point]
17 | CC(=O)CSc1nc2cc3c(cc2cc1C#N)OCCO3 | 4.47 µM [rising, partial curve] | 4.47 µM [rising, partial curve, poor fit]
18 | Fc1ccc(-c2csc3ncnc(Cl)c23)cc1 |  | 35.5 µM [falling, single point]
19 | COc1ccc(-c2nnc(OCc3ccccc3)c3ccccc23)cc1 | 22.4 µM [falling, single point] | 25.1 µM [falling, partial curve, poor fit]
20 | CCOC(=O)CC(=O)CSc1nc2c(cc1C#N)CCCCCC2 | 17.8 µM [rising, single point] | 
21 | O=C(c1cc(-c2ccccc2)nc2ccccc12)N1CCOCC1 | 5.62 µM [rising, full curve, poor fit] | 
22 | Cc1ccc(SCC(=O)NCc2ccncc2)cc1 | 35.5 µM [rising, single point] | 31.6 µM [rising, single point]
23 | CCCCc1c(C)nn(-c2nnc3c4ccccc4n(CC)c3n2)c1C | 12.6 µM [rising, single point] | 
24 | COc1cccc(CNC(=O)CSc2nc3ccccc3nc2Cc2ccccc2)c1 |  | 0.447 µM [rising, full curve, poor fit]
25 | Cc1cccc(N=C2NN=C(c3ccc4c(c3)OCCO4)CS2)c1 | 22.4 µM [falling, single point] | 12.6 µM [falling, partial curve]
26 | COc1ccccc1NC(=S)N(Cc1ccco1)Cc1cc2cc(C)ccc2[nH]c1=O | 2.82 µM [rising, full curve, poor fit] | 
27 | O=C(O)c1cccc(S(=O)(=O)N(Cc2ccccc2)c2ccccc2)c1 | 1 µM [falling, single point] | 0.794 µM [falling, full curve, poor fit]

In another format: entries from further up.

| Row | Structure (SMILES) | AC50 [1] | AC50 [2] |
| --- | --- | --- | --- |
| 21 | O=C(c1cc(-c2ccccc2)nc2ccccc12)N1CCOCC1 | 5.62 µM [rising, full curve, poor fit] |  |
| 23 | CCCCc1c(C)nn(-c2nnc3c4ccccc4n(CC)c3n2)c1C | 12.6 µM [rising, single point] |  |
